Target: rat pituitary cells (Rattus norvegicus, UniProt O08725)
Details: read-out: PIT Cell EC50; Table III, formula IV compounds; GH release, 15 min incubation
Protocol: Pituitaries from ten rats were removed, the posterior pituitary discarded and the anterior pituitary placed in Hanks' Balanced Salt Solution (HBSS: without calcium chloride, w/o magnesium chloride, w/o magnesium sulfate; Gibco) containing 20 mM HEPES (Gibco) and 100 U/ml penicillin streptomycin (PS: JRH Biosciences). Under sterile conditions, pituitaries were rinsed twice then minced into small fragments with a razor blade. […] After the incubation, fragments were triturated to yield small clumps and single cells. The cells were centrifuged 1000× g for 5 min, resuspended, counted and plated at a final cell concentration of 100,000 cells/ml. Incubation media was DME low glucose media w/NaHCO3 (Gibco) containing 20 mM hepes, 100 U/ml PS and 10% FBS (Hyclone A-111-L). Cells were plated at 0.5 ml per well in 48 well plates (Falcon) and incubated at 37° C. in 5% C02 for three days. […] STATISTICS: The mean for each group was determined and analyzed by one-way analysis of variance with a post-hoc Student-Newman-Keuls. […] The EC50 was calculated using a 4-parameter curve-fit program (Kaleidagraph). […] RIA of pituitary hormones: LH, FSH, TSH, and Prolactin were determined with commercially available kits from Amersham, and ACTH levels were determined by a RIA kit from ICN. […]

The chains behind the UniProt entries cited, without tags or fusion partners.
UniProt O08725, whole entry: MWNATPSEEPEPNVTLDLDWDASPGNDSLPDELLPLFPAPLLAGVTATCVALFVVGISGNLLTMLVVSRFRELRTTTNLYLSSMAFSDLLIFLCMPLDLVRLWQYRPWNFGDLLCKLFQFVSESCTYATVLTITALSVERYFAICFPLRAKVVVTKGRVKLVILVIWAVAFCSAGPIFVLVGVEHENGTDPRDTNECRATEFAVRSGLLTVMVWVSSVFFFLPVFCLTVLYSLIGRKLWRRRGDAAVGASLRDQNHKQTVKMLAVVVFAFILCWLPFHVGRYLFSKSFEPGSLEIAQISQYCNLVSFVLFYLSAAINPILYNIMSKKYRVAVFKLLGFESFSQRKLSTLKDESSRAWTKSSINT

For `NCCCC[C@H](NC(=O)[C@H](Cc1ccccc1)NC(=O)[C@@H](Cc1c[nH]c2ccccc12)NC(=O)[C@@H](Cc1ccc2ccccc2c1)NC(=O)C1CCNCC1)C(N)=O` [(inip) b w F K amide], which EC50 is on record?
The EC50 was 1.1 nM.

Reference: patent US7094869B2, “Low molecular weight peptidomimetic growth hormone secretagogues” (Genentech, Inc., priority 1994, dated 2006)
